Some of the results follow.
Experiments:
Assay in all cases: glycan array binding signal (z-score within array); higher = stronger binding
Details in all cases: glycan notation: IUPAC condensed, linker removed
Neu5Ac(a2-3)Gal = biological target: Neu5Ac(a2-3)Gal
How it was run: (§1)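 The Consortium for Functional Glycomics database supplied 3228 glycan arrays, of which those lacking an available protein sequence were dropped. The binding signal, a within-array Z-score, was averaged across arrays of the same protein sequence and across linkers. Negative scores can be read as non-binding.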

[1] = biological target: Neu5Ac(a2-3)Gal(b1-3)GalNAc
How it was run: as §1

[2] = biological target: Neu5Ac(a2-3)Gal(b1-3)GalNAc(b1-3)Gal(a1-4)Gal(b1-4)Glc
How it was run: as §1

[3] = biological target: Neu5Ac(a2-3)Gal(b1-3)GalNAc(b1-4)[Neu5Ac(a2-3)]Gal(b1-4)Glc
How it was run: as §1

[4] = biological target: Neu5Ac(a2-3)Gal(b1-3)GalNAc(b1-4)[Neu5Ac(a2-8)Neu5Ac(a2-3)]Gal(b1-4)Glc
How it was run: as §1

[5] = biological target: Neu5Ac(a2-3)Gal(b1-3)GalNAc6S
How it was run: as §1

[6] = biological target: Neu5Ac(a2-3)Gal(b1-3)GlcNAc
How it was run: as §1

[7] = biological target: Neu5Ac(a2-3)Gal(b1-3)GlcNAc(b1-2)Man
How it was run: as §1

[8] = biological target: Neu5Ac(a2-3)Gal(b1-3)GlcNAc(b1-2)Man(a1-3)[GlcNAc(b1-4)][Neu5Ac(a2-3)Gal(b1-3)GlcNAc(b1-2)Man(a1-6)]Man(b1-4)GlcNAc(b1-4)GlcNAc
How it was run: as §1

[9] = biological target: Neu5Ac(a2-3)Gal(b1-3)GlcNAc(b1-2)Man(a1-3)[Neu5Ac(a2-3)Gal(b1-3)GlcNAc(b1-2)Man(a1-6)]Man(b1-4)GlcNAc(b1-4)GlcNAc
How it was run: as §1

[10] = biological target: Neu5Ac(a2-3)Gal(b1-3)GlcNAc(b1-3)Gal(b1-3)GlcNAc
How it was run: as §1

[11] = biological target: Neu5Ac(a2-3)Gal(b1-3)GlcNAc(b1-3)Gal(b1-4)GlcNAc
How it was run: as §1

[12] = biological target: Neu5Ac(a2-3)Gal(b1-3)GlcNAc(b1-3)GalNAc
How it was run: as §1

[13] = biological target: Neu5Ac(a2-3)Gal(b1-3)GlcNAc(b1-4)Gal(b1-4)Glc
How it was run: as §1

[14] = biological target: Neu5Ac(a2-3)Gal(b1-3)GlcNAc(b1-6)GalNAc
How it was run: as §1

[15] = biological target: Neu5Ac(a2-3)Gal(b1-3)GlcNAc6S
How it was run: as §1

[16] = biological target: Neu5Ac(a2-3)Gal(b1-3)[Fuc(a1-4)]GlcNAc
How it was run: as §1

[17] = biological target: Neu5Ac(a2-3)Gal(b1-3)[Fuc(a1-4)]GlcNAc(b1-3)Gal(b1-3)[Fuc(a1-4)]GlcNAc
How it was run: as §1

[18] = biological target: Neu5Ac(a2-3)Gal(b1-3)[Fuc(a1-4)]GlcNAc(b1-3)Gal(b1-4)[Fuc(a1-3)]GlcNAc
How it was run: as §1

[19] = biological target: Neu5Ac(a2-3)Gal(b1-3)[GlcNAc(b1-6)]GalNAc
How it was run: as §1

[20] = biological target: Neu5Ac(a2-3)Gal(b1-3)[Neu5Ac(a2-6)]GalNAc
How it was run: as §1

[21] = biological target: Neu5Ac(a2-3)Gal(b1-3)[Neu5Ac(a2-6)]GlcNAc(b1-3)[Fuc(a1-3)[Gal(b1-4)]GlcNAc(b1-6)]Gal(b1-4)Glc
How it was run: as §1

[22] = biological target: Neu5Ac(a2-3)Gal(b1-3)]Neu5Ac(a2-3)Gal(b1-4)]GlcNAc
How it was run: as §1

Neu5Ac(a2-3)Gal(b1-4)Glc = biological target: Neu5Ac(a2-3)Gal(b1-4)Glc
How it was run: as §1

[23] = biological target: Neu5Ac(a2-3)Gal(b1-4)GlcNAc
How it was run: as §1

[24] = biological target: Neu5Ac(a2-3)Gal(b1-4)GlcNAc(b1-2)Man
How it was run: as §1

[25] = biological target: Neu5Ac(a2-3)Gal(b1-4)GlcNAc(b1-2)Man(a1-3)[GlcNAc(b1-4)][Neu5Ac(a2-3)Gal(b1-4)GlcNAc(b1-2)Man(a1-6)]Man(b1-4)GlcNAc(b1-4)GlcNAc
How it was run: as §1

[26] = biological target: Neu5Ac(a2-3)Gal(b1-4)GlcNAc(b1-2)Man(a1-3)[Neu5Ac(a2-3)Gal(b1-4)GlcNAc(b1-2)Man(a1-6)]Man(b1-4)GlcNAc(b1-4)GlcNAc
How it was run: as §1

[27] = biological target: Neu5Ac(a2-3)Gal(b1-4)GlcNAc(b1-2)Man(a1-3)[Neu5Ac(a2-3)Gal(b1-4)GlcNAc(b1-2)Man(a1-6)]Man(b1-4)GlcNAc(b1-4)[Fuc(a1-6)]GlcNAc
How it was run: as §1

[28] = biological target: Neu5Ac(a2-3)Gal(b1-4)GlcNAc(b1-2)Man(a1-3)[Neu5Ac(a2-6)Gal(b1-4)GlcNAc(b1-2)Man(a1-6)]Man(b1-4)GlcNAc(b1-4)GlcNAc
How it was run: as §1

[29] = biological target: Neu5Ac(a2-3)Gal(b1-4)GlcNAc(b1-2)[Neu5Ac(a2-3)Gal(b1-4)GlcNAc(b1-4)]Man(a1-3)[GlcNAc(b1-4)][Neu5Ac(a2-3)Gal(b1-4)GlcNAc(b1-2)[Neu5Ac(a2-3)Gal(b1-4)GlcNAc(b1-6)]Man(a1-6)]Man(b1-4)GlcNAc(b1-4)GlcNAc
How it was run: as §1

[30] = biological target: Neu5Ac(a2-3)Gal(b1-4)GlcNAc(b1-2)[Neu5Ac(a2-3)Gal(b1-4)GlcNAc(b1-4)]Man(a1-3)[GlcNAc(b1-4)][Neu5Ac(a2-3)Gal(b1-4)GlcNAc(b1-4)Man(a1-6)]Man(b1-4)GlcNAc(b1-4)GlcNAc
How it was run: as §1

[31] = biological target: Neu5Ac(a2-3)Gal(b1-4)GlcNAc(b1-2)[Neu5Ac(a2-3)Gal(b1-4)GlcNAc(b1-6)]Man(a1-6)[Neu5Ac(a2-3)Gal(b1-4)GlcNAc(b1-2)Man(a1-3)]Man(b1-4)GlcNAc(b1-4)GlcNAc
How it was run: as §1

[32] = biological target: Neu5Ac(a2-3)Gal(b1-4)GlcNAc(b1-2)[Neu5Ac(a2-3)Gal(b1-4)GlcNAc(b1-6)]Man(a1-6)[Neu5Ac(a2-3)Gal(b1-4)GlcNAc(b1-2)Man(a1-3)][GlcNAc(b1-4)]Man(b1-4)GlcNAc(b1-4)GlcNAc
How it was run: as §1

[33] = biological target: Neu5Ac(a2-3)Gal(b1-4)GlcNAc(b1-3)Gal
How it was run: as §1

[34] = biological target: Neu5Ac(a2-3)Gal(b1-4)GlcNAc(b1-3)Gal(b1-3)GlcNAc
How it was run: as §1

[35] = biological target: Neu5Ac(a2-3)Gal(b1-4)GlcNAc(b1-3)Gal(b1-4)GlcNAc
How it was run: as §1

[36] = biological target: Neu5Ac(a2-3)Gal(b1-4)GlcNAc(b1-3)Gal(b1-4)GlcNAc(b1-2)Man(a1-3)[Neu5Ac(a2-3)Gal(b1-4)GlcNAc(b1-3)Gal(b1-4)GlcNAc(b1-2)Man(a1-6)]Man(b1-4)GlcNAc(b1-4)GlcNAc
How it was run: as §1

[37] = biological target: Neu5Ac(a2-3)Gal(b1-4)GlcNAc(b1-3)Gal(b1-4)GlcNAc(b1-3)Gal(b1-4)GlcNAc
How it was run: as §1

[38] = biological target: Neu5Ac(a2-3)Gal(b1-4)GlcNAc(b1-3)Gal(b1-4)GlcNAc(b1-3)Gal(b1-4)GlcNAc(b1-2)Man(a1-3)[Neu5Ac(a2-3)Gal(b1-4)GlcNAc(b1-3)Gal(b1-4)GlcNAc(b1-3)Gal(b1-4)GlcNAc(b1-2)Man(a1-6)]GalNAc
How it was run: as §1

[39] = biological target: Neu5Ac(a2-3)Gal(b1-4)GlcNAc(b1-3)Gal(b1-4)GlcNAc(b1-3)GalNAc
How it was run: as §1

[40] = biological target: Neu5Ac(a2-3)Gal(b1-4)GlcNAc(b1-3)Gal(b1-4)GlcNAc(b1-3)[Neu5Ac(a2-3)Gal(b1-4)GlcNAc(b1-3)Gal(b1-4)GlcNAc(b1-6)]GalNAc
How it was run: as §1

[41] = biological target: Neu5Ac(a2-3)Gal(b1-4)GlcNAc(b1-3)Gal(b1-4)GlcNAc(b1-6)[Gal(b1-3)]GalNAc
How it was run: as §1

[42] = biological target: Neu5Ac(a2-3)Gal(b1-4)GlcNAc(b1-3)Gal(b1-4)[Fuc(a1-3)]GlcNAc
How it was run: as §1

[43] = biological target: Neu5Ac(a2-3)Gal(b1-4)GlcNAc(b1-3)GalNAc
How it was run: as §1

B1: Clec12b (Mus musculus), Q149M0 (protein)
chain: MSDEVTYATLMLQDSARVRGNQDGNNLRKEGHPAQSSLWRGAALSLMTLCLVLVTGLVTLATMFLQVSNDINSDSEKLSQLQKSIHPQQDNLSESLNSSRKSLTEESLQSQISALLERQEQMATKLCKEFLIHASDHKCNPCPKTWQWYGNSCYYFSINEEKSWSDSRKDCIDKNATLVKIDSTEERDLLQSQLSLTFSFFWLGLSWNSSGRNWLWEDGSFPPPTLFSDKELASFNGSRDCAYFERGNIYASRCSAEIPWICEKTASLVKTEDLD
Neu5Ac(a2-3)Gal
  glycan array binding signal (z-score): -0.719
[1]
  glycan array binding signal (z-score): -0.664
[2]
  glycan array binding signal (z-score): -0.593
[3]
  glycan array binding signal (z-score): -0.389
[4]
  glycan array binding signal (z-score): 1.27
[5]
  glycan array binding signal (z-score): 0.046
[6]
  glycan array binding signal (z-score): -0.346
[7]
  glycan array binding signal (z-score): -0.3
[8]
  glycan array binding signal (z-score): -0.101
[9]
  glycan array binding signal (z-score): 0.287
[10]
  glycan array binding signal (z-score): 1.37
[11]
  glycan array binding signal (z-score): -0.487
[12]
  glycan array binding signal (z-score): -0.412
[13]
  glycan array binding signal (z-score): -0.673
[14]
  glycan array binding signal (z-score): -0.198
[15]
  glycan array binding signal (z-score): -0.313
[16]
  glycan array binding signal (z-score): -0.719
[17]
  glycan array binding signal (z-score): -0.54
[18]
  glycan array binding signal (z-score): -0.44
[19]
  glycan array binding signal (z-score): -0.722
[20]
  glycan array binding signal (z-score): 2.43
[21]
  glycan array binding signal (z-score): -0.695
[22]
  glycan array binding signal (z-score): -0.382
Neu5Ac(a2-3)Gal(b1-4)Glc
  glycan array binding signal (z-score): -0.104
[23]
  glycan array binding signal (z-score): -0.691
[24]
  glycan array binding signal (z-score): 1.58
[25]
  glycan array binding signal (z-score): -0.691
[26]
  glycan array binding signal (z-score): -0.716
[27]
  glycan array binding signal (z-score): 11.9
[28]
  glycan array binding signal (z-score): -0.741
[29]
  glycan array binding signal (z-score): -0.778
[30]
  glycan array binding signal (z-score): -0.562
[31]
  glycan array binding signal (z-score): -0.519
[32]
  glycan array binding signal (z-score): -0.655
[33]
  glycan array binding signal (z-score): -0.778
[34]
  glycan array binding signal (z-score): -0.733
[35]
  glycan array binding signal (z-score): -0.416
[36]
  glycan array binding signal (z-score): -0.516
[37]
  glycan array binding signal (z-score): -0.487
[38]
  glycan array binding signal (z-score): 1.15
[39]
  glycan array binding signal (z-score): -0.767
[40]
  glycan array binding signal (z-score): -0.513
[41]
  glycan array binding signal (z-score): -0.721
[42]
  glycan array binding signal (z-score): -0.055
[43]
  glycan array binding signal (z-score): -0.623

Reference: the supplement of paper PMC8728848
